Source: publication doi:10.1101/585497
No constants are given. Whether binding was seen depends on the method and setting. In cells and extracts the contact can be indirect. Some entries that bind do so weakly or less than the wild type.

Amino acid sequences for entries named in this document (tags omitted).
UniProt P25963: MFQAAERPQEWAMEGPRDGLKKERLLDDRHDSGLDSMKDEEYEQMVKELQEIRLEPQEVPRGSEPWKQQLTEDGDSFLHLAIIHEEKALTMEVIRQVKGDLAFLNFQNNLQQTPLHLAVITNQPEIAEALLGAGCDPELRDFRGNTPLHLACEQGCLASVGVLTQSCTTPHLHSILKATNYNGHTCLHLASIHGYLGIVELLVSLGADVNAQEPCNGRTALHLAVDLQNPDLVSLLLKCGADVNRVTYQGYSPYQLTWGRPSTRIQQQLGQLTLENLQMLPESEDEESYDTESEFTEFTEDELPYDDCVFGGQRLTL
UniProt P49790: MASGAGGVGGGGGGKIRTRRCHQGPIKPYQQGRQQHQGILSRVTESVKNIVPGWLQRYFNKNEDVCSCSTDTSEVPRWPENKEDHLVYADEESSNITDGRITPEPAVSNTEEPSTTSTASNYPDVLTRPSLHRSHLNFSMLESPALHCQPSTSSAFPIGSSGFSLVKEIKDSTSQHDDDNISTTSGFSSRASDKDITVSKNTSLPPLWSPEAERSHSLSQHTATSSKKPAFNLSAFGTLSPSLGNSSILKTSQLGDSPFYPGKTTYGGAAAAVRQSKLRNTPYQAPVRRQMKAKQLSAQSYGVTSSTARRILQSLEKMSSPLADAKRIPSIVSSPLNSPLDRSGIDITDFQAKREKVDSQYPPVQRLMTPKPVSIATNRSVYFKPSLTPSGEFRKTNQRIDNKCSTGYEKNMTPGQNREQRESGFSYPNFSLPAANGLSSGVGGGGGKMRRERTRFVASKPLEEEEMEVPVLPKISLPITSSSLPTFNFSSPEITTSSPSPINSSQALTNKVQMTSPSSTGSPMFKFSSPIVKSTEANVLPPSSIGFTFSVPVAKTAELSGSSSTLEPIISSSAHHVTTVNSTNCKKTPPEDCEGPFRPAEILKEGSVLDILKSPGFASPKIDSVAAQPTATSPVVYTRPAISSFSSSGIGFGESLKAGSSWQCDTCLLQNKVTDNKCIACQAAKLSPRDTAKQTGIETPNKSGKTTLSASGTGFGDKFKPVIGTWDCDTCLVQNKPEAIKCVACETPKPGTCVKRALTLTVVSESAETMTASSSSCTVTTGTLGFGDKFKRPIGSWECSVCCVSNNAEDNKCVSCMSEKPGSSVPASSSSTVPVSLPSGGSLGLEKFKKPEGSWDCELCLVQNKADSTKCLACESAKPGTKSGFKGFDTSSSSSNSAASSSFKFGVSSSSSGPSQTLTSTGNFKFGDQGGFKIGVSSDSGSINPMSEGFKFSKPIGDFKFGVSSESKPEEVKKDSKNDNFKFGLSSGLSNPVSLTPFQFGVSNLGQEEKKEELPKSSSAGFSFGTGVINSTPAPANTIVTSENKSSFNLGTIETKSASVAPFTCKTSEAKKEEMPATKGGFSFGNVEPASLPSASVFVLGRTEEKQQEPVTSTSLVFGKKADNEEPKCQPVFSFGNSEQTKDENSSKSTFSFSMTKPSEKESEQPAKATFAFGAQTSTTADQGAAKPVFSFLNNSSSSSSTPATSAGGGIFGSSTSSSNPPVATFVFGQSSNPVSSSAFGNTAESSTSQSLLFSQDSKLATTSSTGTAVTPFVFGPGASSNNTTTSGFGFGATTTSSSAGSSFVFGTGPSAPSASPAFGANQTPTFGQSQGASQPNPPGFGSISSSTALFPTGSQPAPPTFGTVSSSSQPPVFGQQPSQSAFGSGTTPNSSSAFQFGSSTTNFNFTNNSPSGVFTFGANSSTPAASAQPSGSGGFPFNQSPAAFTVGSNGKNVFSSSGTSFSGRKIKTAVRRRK

Legend:
[1] = target: N-terminally mEmerald (GFP)-tagged IκBα (UniProt P25963); experiment: co-IP
[2] = target: endogenous IκBα (HepG2) (human (endogenous in HepG2)) (UniProt P25963); experiment: co-IP

Row | Substance | binding [1] | binding [2]
1 | Nup153 (endogenous, HEK293T) (from UniProt P49790 1-1475) | binds | –
2 | Nup153 (endogenous, HepG2) (from UniProt P49790 1-1475) | – | binds
